In PMC9253731:
Results are given in words; binding and its absence hold for the method and conditions named. In cells and extracts the contact can be indirect. Some entries that bind do so weakly or less than the wild type.

Chains of the proteins cited; added tags and fusions are not shown.
UniProt P25490: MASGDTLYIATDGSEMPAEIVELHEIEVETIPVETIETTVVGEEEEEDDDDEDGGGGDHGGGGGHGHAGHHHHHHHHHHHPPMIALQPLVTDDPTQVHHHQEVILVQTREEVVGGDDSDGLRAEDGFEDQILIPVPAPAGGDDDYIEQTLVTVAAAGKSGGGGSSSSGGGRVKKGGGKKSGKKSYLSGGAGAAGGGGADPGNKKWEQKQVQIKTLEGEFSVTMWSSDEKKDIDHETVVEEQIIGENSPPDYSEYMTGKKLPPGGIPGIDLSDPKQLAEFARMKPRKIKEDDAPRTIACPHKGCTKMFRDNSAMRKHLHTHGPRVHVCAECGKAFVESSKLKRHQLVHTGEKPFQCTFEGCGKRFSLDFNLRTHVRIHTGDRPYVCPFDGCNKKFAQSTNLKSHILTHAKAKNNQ
UniProt O00571: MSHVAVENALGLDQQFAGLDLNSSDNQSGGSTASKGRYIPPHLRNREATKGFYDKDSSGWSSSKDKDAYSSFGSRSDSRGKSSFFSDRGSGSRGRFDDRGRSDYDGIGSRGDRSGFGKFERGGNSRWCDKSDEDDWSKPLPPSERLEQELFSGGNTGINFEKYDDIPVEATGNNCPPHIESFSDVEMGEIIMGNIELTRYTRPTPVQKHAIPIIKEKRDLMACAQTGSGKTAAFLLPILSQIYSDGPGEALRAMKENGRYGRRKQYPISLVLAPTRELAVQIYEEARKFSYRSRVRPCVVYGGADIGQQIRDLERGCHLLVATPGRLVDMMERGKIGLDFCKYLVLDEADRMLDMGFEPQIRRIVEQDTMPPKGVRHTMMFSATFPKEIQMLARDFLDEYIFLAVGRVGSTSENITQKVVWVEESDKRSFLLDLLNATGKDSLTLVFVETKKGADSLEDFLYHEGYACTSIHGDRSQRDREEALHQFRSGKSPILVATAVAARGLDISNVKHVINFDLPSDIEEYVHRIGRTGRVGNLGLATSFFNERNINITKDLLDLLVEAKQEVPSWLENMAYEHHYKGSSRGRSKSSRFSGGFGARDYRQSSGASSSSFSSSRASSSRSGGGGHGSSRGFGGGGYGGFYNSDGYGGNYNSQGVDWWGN
UniProt Q07866: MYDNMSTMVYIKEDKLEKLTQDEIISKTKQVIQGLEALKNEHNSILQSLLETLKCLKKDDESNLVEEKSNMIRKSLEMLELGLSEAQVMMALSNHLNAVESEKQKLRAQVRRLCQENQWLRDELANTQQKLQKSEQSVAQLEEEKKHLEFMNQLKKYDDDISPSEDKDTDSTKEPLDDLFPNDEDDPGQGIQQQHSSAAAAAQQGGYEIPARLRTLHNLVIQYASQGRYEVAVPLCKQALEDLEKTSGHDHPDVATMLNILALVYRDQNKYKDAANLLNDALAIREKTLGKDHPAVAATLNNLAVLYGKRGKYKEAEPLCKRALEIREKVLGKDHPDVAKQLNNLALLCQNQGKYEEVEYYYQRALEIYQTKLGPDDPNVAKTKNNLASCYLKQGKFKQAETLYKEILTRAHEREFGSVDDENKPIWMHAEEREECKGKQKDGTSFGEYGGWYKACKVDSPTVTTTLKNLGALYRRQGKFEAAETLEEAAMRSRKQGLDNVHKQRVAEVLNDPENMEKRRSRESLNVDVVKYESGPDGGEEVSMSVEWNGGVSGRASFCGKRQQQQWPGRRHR

T1: kinectin 1 (human (endogenous in MDA-MB-231 and BT549)) (UniProt Q86UP2)
T1 sequence: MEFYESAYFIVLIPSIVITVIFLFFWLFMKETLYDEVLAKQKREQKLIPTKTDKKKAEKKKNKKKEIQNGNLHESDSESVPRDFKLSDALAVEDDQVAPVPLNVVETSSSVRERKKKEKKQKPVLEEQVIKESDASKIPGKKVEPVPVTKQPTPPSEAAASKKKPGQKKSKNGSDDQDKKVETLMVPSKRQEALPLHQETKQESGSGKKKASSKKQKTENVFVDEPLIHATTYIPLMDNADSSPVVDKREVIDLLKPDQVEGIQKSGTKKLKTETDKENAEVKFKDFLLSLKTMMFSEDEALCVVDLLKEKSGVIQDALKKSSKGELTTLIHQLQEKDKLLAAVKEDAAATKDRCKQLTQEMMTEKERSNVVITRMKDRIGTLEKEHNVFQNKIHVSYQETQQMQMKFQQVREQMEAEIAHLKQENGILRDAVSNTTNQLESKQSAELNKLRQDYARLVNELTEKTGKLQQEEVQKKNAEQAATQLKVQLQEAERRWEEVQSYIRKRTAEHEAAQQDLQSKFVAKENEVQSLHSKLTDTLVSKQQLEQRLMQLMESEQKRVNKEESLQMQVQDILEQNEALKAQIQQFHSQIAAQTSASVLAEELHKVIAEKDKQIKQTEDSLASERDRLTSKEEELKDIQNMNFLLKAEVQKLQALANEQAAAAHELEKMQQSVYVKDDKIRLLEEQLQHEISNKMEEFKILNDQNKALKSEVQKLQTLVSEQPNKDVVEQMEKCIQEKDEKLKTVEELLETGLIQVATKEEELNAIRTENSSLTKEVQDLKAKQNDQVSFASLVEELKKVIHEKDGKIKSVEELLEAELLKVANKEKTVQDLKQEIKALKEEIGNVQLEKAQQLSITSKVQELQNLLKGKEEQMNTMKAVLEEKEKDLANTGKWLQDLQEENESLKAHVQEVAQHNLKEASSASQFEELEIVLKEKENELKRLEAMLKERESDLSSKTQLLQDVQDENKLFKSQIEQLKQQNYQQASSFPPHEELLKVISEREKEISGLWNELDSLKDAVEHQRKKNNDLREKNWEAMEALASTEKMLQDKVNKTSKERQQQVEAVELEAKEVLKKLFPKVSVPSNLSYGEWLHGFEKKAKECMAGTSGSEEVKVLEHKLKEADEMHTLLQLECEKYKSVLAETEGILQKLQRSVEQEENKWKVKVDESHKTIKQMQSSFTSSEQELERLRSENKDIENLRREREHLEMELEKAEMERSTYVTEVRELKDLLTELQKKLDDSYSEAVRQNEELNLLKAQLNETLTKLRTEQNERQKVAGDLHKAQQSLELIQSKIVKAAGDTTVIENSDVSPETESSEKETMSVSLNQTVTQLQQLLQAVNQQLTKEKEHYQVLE

B1: Kinesin family member C1 (protein, UniProt Q9BW19 1-673)
chain: MDPQRSPLLEVKGNIELKRPLIKAPSQLPLSGSRLKRRPDQMEDGLEPEKKRTRGLGATTKITTSHPRVPSLTTVPQTQGQTTAQKVSKKTGPRCSTAIATGLKNQKPVPAVPVQKSGTSGVPPMAGGKKPSKRPAWDLKGQLCDLNAELKRCRERTQTLDQENQQLQDQLRDAQQQVKALGTERTTLEGHLAKVQAQAEQGQQELKNLRACVLELEERLSTQEGLVQELQKKQVELQEERRGLMSQLEEKERRLQTSEAALSSSQAEVASLRQETVAQAALLTEREERLHGLEMERRRLHNQLQELKGNIRVFCRVRPVLPGEPTPPPGLLLFPSGPGGPSDPPTRLSLSRSDERRGTLSGAPAPPTRHDFSFDRVFPPGSGQDEVFEEIAMLVQSALDGYPVCIFAYGQTGSGKTFTMEGGPGGDPQLEGLIPRALRHLFSVAQELSGQGWTYSFVASYVEIYNETVRDLLATGTRKGQGGECEIRRAGPGSEELTVTNARYVPVSCEKEVDALLHLARQNRAVARTAQNERSSRSHSVFQLQISGEHSSRGLQCGAPLSLVDLAGSERLDPGLALGPGERERLRETQAINSSLSTLGLVIMALSNKESHVPYRNSKLTYLLQNSLGGSAKMLMFVNISPLEENVSESLNSLRFASKVNQCVIGTAQANRK

Assays:
[1] = biological target: Yin Yang 1 (human (endogenous in MDA-MB-231 and BT549)) (UniProt P25490); assay: co-IP; immunoprecipitation of endogenous YY1 with anti-YY1 antibody from MDA-MB-231 and BT549 lysates, control IgG; precipitate analysed by western blotting
[2] = biological target: T1, kinectin 1 (human (endogenous in MDA-MB-231 and BT549)); assay: co-IP; immunoprecipitation with KTN1 antibody against negative control IgG in both types of BCa cells; KIFC1 and KLC1 detected

Molecule	binding [1]	binding [2]
DEAD-box helicase 3 X-linked (from UniProt O00571 1-662)	binds	
Kinesin light chain 1 (from UniProt Q07866 1-573)		binds
B1		binds
